These are literature values, as cited in patent publication US20090118354A1, “Liquid Pharmaceutical Formulations of Docetaxel” (MAYNE PHARMA LIMITED, priority 2005, published 2009).

For this series the following is noted: cited from earlier work.

Turning to `CC(=O)O[C@@]12CO[C@@H]1C[C@H](O)[C@@]1(C)C(=O)[C@H](O)C3=C(C)[C@@H](OC(=O)[C@H](O)[C@@H](NC(=O)OC(C)(C)C)c4ccccc4)C[C@@](O)([C@@H](OC(=O)c4ccccc4)[C@H]21)C3(C)C` [Docetaxel, (2R,3S)-N-carboxy-3-phenylisoserine,N-tert-butylester, 13 ester with 5β-20-epoxy-1,2α,4,7β,10β,13α-hexahydroxytax-11-en-9-one 4-acetate 2 benzoate], the solubility in ethanol entry is reported as “soluble in ethanol” and the solubility in water entry is “practically insoluble in water”.
